# According to patent publication US8299032B2, “Self-assembling peptide and gel produced from the same” (Menicon Co., Ltd., priority 2005, dated 2012):
# Some of these results come from one statement about several compounds together.
# Tests used:
# [1] = Confirmation of beta-sheet structure formation by circular dichroism measurement; assay type: physicochemical; details: 3×10^−3 M peptide in 0.1 M Tris-HCl (pH 7.5)
# Experimental: The formation of each of the beta (β)-sheet structures of Peptide Nos. 1 to 9 and 12 synthesized in Production Examples 1 and 2 mentioned above was confirmed in accordance with circular dichroism measurement method. Concretely, each of the peptides was dissolved in 0.1 M Tris-HCl (pH 7.5) to prepare a 3×10^−3 M peptide solution. The resulting peptide solution was filled into a quartz cell having an optical path length of 0.5 mm (manufactured by JASCO, trade name: 110J cylindrical cell, volume: 0.04 mL), and the quartz cell was set in trade name J-820K Spectropolarimeter (manufactured by JASCO), and the molar ellipticities at 195 to 260 nm for the peptide solutions were determined in accordance with the circular dichroism measurement method.
# [2] = Dynamic viscoelasticity of peptide aqueous solution (storage modulus G′, loss modulus G″); assay type: physicochemical; details: 0.5 wt % aqueous solution, pH 7.23-7.55, 0.1 to 10 rad/sec
# Excerpt: In addition, the term “gel” as used herein refers to a viscoelastic substance having both viscous property and elastic property. Concretely, the gel refers to a substance satisfying the formula G′>G″, in a case where the gel is subjected to dynamic viscoelasticity measurement to determine a storage elastic modulus G′ and a loss elastic modulus G″.
# The dynamic viscoelasticity can be determined with a dynamic viscoelasticity measurement apparatus as described in Examples set forth below. Concretely, the dynamic viscoelasticity can be determined by placing a sample on an iron plate, compressing the sample with an iron cone, and monitoring a stress applied to a motor rotating the iron cone when the cone is rotated.
# The storage elastic modulus G′ and the loss elastic modulus G″ of a 0.5% by weight peptide (Peptide Nos. 1 to 10 mentioned above)-containing aqueous solution were determined with an instrument under the trade name of AR1000 (manufactured by TA Instruments Japan). Concretely, 800 μL of a 0.5% by weight peptide-containing aqueous solution, which was allowed to stand at room temperature for one day, was placed on an iron plate, and an iron cone (diameter: 40 mm, angle of cone: 2°) was placed over the 0.5% by weight peptide-containing aqueous solution. Next, the 0.5% by weight peptide-containing aqueous solution was compressed, and a stress applied to a motor was monitored when the iron cone was rotated, while varying the frequency of the cone within the range of 0.1 to 10 rad/sec.
Sequence,formation of beta (β)-sheet structure in aqueous solution [1],molar ellipticity at 216 nm [1],gel formation by dynamic viscoelasticity [2]
"RASARADARASARADA (Synthetic self-assembling peptide of the invention) [Peptide No. 1, self-assembling peptide of the present invention]",formed beta(β)-sheet structures in an aqueous solution,negative molar ellipticities at 216 nm,formed into gel
"KASAKAEAKASAKAEA (Synthetic self-assembling peptide of the invention) [Peptide No. 8, self-assembling peptide of the present invention]",formed beta(β)-sheet structures in an aqueous solution,negative molar ellipticities at 216 nm,formed into gel
"RANARADARANARADA (Synthetic self-assembling peptide of the invention) [Peptide No. 2, self-assembling peptide of the present invention]",formed beta(β)-sheet structures in an aqueous solution,negative molar ellipticities at 216 nm,formed into gel
"SAEAKAEASAEAKAEA (Synthetic self-assembling peptide of the invention) [Peptide No. 9, self-assembling peptide of the present invention]",formed beta(β)-sheet structures in an aqueous solution,negative molar ellipticities at 216 nm,formed into gel
"RAAARADARAAARADA (Synthetic self-assembling peptide of the invention) [Peptide No. 3, self-assembling peptide of the present invention]",formed beta(β)-sheet structures in an aqueous solution,negative molar ellipticities at 216 nm,formed into gel
"RASARADARADARASA (Synthetic self-assembling peptide of the invention) [Peptide No. 4, self-assembling peptide of the present invention]",formed beta(β)-sheet structures in an aqueous solution,negative molar ellipticities at 216 nm,formed into gel
"RASARASARASARADA (Synthetic self-assembling peptide of the invention) [Peptide No. 6, self-assembling peptide of the present invention]",formed beta(β)-sheet structures in an aqueous solution,negative molar ellipticities at 216 nm,formed into gel
"RADARASARASARADA (Synthetic self-assembling peptide of the invention) [Peptide No. 5, self-assembling peptide of the present invention]",formed beta(β)-sheet structures in an aqueous solution,negative molar ellipticities at 216 nm,formed into gel
"RASARADARASA (Synthetic self-assembling peptide of the invention) [Peptide No. 7, self-assembling peptide of the present invention]",formed beta(β)-sheet structures in an aqueous solution,negative molar ellipticities at 216 nm,formed into gel
